Laboratory results reported in the supplement of paper PMC10849652.
The other results are listed elsewhere or left out.

By UniProt entry, the sequences of proteins in these tests, tags left out. Where a name states a change or a piece, a line headed by the entry shows the natural chain unless it says otherwise.
UniProt Q9NVC6: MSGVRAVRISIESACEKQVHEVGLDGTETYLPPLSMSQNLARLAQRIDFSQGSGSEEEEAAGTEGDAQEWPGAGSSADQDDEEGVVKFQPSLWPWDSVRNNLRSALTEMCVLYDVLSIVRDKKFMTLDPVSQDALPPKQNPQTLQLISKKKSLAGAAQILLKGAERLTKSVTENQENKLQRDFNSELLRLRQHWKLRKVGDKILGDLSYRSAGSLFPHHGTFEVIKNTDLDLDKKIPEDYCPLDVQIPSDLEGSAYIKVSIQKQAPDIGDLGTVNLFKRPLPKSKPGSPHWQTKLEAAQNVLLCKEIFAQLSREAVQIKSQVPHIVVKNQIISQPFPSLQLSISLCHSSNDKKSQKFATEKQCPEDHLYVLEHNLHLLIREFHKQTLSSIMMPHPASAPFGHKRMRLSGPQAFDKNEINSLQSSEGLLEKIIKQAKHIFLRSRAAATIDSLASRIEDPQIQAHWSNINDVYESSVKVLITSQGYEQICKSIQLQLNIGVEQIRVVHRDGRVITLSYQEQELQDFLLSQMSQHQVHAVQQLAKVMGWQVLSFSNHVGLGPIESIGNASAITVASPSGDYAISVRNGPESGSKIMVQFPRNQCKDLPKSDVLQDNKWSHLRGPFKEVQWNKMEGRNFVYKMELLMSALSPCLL
UniProt Q86XN8: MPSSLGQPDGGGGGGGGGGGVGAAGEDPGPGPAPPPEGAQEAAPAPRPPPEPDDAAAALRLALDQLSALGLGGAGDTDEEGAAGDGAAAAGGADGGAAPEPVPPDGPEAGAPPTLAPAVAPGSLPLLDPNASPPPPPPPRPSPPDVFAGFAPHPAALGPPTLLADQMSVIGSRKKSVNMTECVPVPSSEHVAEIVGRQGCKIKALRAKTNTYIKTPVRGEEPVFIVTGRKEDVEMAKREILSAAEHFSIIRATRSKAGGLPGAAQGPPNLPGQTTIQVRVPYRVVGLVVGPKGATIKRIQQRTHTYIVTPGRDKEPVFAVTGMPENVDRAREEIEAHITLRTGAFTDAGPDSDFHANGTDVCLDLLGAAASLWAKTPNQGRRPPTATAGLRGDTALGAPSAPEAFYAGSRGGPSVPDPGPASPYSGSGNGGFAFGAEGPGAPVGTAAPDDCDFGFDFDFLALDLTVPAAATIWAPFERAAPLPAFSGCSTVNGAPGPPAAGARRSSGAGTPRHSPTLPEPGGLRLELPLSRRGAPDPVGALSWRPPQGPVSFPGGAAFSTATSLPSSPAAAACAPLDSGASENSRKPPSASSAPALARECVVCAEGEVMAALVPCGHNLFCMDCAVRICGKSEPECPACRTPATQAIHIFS
UniProt C9JP00: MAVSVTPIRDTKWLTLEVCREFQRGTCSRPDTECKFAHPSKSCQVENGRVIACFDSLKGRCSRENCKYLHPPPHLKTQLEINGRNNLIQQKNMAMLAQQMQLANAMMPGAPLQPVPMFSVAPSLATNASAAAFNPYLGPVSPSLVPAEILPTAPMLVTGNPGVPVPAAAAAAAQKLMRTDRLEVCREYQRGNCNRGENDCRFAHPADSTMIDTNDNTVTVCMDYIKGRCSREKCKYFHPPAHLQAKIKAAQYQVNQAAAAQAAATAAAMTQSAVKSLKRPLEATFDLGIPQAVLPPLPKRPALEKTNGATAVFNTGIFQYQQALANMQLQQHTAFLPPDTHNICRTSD
UniProt P51608, whole entry, looked up: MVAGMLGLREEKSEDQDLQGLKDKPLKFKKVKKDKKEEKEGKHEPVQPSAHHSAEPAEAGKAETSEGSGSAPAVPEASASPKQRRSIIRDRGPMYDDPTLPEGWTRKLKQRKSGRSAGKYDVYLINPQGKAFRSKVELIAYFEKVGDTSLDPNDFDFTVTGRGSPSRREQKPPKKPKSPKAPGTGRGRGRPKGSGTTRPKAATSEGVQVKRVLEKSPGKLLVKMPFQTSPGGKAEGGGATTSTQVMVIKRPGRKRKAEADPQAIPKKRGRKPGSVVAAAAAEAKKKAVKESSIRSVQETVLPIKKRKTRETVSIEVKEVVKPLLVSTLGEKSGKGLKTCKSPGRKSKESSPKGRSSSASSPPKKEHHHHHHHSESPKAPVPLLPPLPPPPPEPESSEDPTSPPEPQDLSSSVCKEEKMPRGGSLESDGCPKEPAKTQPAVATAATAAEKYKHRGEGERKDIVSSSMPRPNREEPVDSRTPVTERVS
UniProt Q9BV79: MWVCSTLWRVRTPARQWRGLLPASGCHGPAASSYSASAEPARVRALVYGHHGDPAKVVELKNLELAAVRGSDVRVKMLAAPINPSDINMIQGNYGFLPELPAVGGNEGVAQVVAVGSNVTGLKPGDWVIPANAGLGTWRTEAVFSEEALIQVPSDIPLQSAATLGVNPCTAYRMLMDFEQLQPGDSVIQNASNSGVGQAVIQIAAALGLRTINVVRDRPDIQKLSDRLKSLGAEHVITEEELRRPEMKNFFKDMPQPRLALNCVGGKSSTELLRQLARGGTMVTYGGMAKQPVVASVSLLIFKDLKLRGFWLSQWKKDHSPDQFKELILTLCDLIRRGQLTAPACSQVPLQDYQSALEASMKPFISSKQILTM
UniProt Q96RN5: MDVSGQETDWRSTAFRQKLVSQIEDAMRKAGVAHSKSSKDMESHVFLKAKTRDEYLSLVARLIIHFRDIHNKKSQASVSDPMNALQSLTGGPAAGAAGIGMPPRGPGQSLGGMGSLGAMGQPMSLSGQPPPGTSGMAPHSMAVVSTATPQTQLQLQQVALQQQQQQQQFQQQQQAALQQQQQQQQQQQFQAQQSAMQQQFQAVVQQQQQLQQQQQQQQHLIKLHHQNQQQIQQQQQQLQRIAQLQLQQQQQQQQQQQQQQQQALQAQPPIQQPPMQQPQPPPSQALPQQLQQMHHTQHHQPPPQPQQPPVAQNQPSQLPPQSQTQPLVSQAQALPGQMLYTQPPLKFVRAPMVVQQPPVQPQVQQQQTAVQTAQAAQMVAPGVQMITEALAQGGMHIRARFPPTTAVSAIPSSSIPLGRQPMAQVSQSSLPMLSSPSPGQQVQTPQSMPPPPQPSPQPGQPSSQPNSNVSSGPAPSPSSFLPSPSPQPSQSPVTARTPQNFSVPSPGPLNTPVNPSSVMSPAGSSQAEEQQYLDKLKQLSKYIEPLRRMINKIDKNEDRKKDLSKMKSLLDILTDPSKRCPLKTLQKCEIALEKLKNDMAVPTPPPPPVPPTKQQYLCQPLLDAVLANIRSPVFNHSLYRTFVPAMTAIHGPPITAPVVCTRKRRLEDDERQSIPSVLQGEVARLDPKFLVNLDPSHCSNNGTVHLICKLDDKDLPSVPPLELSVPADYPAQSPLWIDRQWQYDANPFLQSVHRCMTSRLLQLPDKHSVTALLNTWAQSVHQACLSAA
UniProt Q96N66: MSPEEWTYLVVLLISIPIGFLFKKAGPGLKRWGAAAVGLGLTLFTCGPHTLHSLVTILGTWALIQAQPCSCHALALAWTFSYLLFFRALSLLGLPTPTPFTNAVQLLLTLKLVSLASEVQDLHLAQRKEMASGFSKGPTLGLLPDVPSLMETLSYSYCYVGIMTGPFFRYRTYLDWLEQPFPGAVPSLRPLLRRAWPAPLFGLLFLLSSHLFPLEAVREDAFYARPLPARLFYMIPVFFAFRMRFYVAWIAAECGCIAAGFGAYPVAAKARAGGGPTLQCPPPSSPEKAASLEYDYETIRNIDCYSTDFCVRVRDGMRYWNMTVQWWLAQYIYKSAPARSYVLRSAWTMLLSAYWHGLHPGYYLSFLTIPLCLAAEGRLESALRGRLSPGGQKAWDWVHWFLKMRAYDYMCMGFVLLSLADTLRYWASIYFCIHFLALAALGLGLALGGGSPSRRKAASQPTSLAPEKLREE
UniProt Q9BUE0: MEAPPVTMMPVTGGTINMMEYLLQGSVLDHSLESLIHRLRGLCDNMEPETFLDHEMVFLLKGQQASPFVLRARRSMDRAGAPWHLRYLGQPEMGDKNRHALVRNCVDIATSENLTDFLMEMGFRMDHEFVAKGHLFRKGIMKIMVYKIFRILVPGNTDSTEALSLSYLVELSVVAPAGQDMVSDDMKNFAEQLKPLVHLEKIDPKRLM
UniProt Q7Z434: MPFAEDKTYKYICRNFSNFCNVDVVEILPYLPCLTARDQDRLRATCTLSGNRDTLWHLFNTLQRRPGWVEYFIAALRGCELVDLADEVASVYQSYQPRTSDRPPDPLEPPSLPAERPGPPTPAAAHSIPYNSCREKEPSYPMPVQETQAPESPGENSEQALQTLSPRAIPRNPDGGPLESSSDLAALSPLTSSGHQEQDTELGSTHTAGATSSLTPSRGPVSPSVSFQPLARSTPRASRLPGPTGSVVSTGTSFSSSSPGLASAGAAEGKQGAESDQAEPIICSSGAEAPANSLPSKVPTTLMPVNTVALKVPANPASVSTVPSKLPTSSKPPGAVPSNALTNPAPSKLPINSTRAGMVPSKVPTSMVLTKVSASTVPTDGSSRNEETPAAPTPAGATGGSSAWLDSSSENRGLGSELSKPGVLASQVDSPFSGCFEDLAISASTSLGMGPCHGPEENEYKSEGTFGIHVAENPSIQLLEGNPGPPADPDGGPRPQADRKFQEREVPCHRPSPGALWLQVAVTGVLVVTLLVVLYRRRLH
UniProt P61244, whole entry, looked up: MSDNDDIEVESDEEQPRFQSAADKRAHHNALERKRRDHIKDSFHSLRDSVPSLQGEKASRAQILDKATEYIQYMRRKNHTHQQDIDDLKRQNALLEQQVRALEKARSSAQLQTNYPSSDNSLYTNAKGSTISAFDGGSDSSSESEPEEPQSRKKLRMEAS
UniProt Q9UBP6: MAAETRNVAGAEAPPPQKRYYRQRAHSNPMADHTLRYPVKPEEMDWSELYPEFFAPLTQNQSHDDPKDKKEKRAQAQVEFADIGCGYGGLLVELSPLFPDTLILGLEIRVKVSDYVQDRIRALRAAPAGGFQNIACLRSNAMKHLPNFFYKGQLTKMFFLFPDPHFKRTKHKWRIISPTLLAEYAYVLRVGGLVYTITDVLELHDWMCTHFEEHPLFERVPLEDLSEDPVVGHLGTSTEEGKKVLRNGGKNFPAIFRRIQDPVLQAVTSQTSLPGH
UniProt Q86V88: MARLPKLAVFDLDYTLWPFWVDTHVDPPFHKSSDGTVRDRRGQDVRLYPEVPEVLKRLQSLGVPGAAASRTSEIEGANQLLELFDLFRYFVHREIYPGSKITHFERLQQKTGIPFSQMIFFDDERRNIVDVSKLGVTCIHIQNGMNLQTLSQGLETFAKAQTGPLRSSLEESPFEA
UniProt Q9H3U5: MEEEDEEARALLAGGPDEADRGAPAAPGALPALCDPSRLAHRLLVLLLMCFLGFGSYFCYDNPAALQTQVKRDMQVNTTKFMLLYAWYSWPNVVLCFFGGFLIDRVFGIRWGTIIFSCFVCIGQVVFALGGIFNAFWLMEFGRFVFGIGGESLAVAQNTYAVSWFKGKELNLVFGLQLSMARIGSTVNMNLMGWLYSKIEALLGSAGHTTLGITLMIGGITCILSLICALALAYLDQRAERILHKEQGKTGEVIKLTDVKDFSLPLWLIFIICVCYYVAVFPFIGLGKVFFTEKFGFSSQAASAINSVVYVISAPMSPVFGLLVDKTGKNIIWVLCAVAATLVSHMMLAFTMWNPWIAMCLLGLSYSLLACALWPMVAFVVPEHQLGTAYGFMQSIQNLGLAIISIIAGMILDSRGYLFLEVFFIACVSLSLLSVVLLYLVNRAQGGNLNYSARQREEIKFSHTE
UniProt P25205: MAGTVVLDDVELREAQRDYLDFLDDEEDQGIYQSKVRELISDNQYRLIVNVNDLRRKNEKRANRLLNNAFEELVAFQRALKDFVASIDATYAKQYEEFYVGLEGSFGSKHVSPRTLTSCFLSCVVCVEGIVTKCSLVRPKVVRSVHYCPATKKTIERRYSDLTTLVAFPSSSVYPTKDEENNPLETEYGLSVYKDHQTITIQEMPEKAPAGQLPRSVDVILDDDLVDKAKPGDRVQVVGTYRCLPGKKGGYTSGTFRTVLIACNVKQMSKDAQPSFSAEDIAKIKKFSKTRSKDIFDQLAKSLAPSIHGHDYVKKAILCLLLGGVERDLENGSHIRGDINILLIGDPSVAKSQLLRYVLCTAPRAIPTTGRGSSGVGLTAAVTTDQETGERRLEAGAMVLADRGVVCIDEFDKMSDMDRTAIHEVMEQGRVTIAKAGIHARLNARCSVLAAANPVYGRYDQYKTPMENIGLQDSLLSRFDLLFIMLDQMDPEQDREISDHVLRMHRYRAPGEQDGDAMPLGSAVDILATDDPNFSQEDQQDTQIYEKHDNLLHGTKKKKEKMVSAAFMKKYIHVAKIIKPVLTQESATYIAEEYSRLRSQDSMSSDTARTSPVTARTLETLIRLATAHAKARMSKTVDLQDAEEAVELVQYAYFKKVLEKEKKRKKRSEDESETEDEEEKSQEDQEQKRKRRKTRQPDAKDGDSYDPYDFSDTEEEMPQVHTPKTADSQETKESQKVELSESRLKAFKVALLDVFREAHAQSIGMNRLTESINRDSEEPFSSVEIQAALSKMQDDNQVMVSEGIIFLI

Assays:
Assay in all cases: log2 fold change, soluble protein after heating vs DMSO (PISA); higher = thermal stabilisation; K562 lysate, 10 uM; active = over 0.2 and 3.5 SD of the protein, either way, in both replicates (recomputed)
[1] = compound: C1=CC=C(C=C1)[C@H](COC2=CC3=C(C=C2)NC(=O)N3)NC(=O)C4=CC=CN(C4=O)CC5=CC(=C(C=C5)F)F
In short: (§1)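 The values are log-two fold changes in thermal stability compared with solvent controls and come from duplicates. They were obtained by TMTpro 16plex LC-MS/MS, with channel sums equalised, on the supernatant after 21,000xg for 90 min. That supernatant came from crude K562 extract at 1 mg/mL protein treated with 10 μM compound for 30 min, heated for 3 min across 48°C-58°C, pooled and brought to 0.5% NP-40 at 4°C.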

[2] = compound: CC1=C(SC2=C1C(=N[C@H](C3=NN=C(N32)C)CC(=O)N)C4=CC=C(C=C4)Cl)C
In short: as §1

[3] = compound: CC1=C2C(=CC=C1)N=C(N(C2=O)C3=CC=CC=C3C)CN4C=NC5=C(N=CN=C54)N
In short: as §1

[4] = compound: Cc1sc2c(c1C)C(c1ccc(Cl)cc1)=N[C@@H](CC(=O)OC(C)(C)C)c1nnc(C)n1-2
In short: as §1

[5] = compound: c1ccc([C@@H]2C[C@H]2NC2CCNCC2)cc1
In short: as §1

Measured: log2 fold change

MED17 (UniProt Q9NVC6)
inactive: [1] 0.009 | [2] 0.021 | [3] 0.016 | [4] 0.021 | [5] 0.02

MCCC1 (UniProt Q96RQ3)
inactive: [1] -0.063 | [2] 0.015 | [3] 0.046 | [4] 0.002 | [5] 0.059

MDH1 isoform 3 (UniProt P40925)
inactive: [1] 0 | [2] 0.011 | [3] -0.007 | [4] 0.001 | [5] 0.005

MEX3D isoform 3 (UniProt Q86XN8)
inactive: [1] -0.049 | [2] -0.012 | [3] 0.034 | [4] 0.022 | [5] -0.01

MBNL1 (UniProt C9JP00)
inactive: [1] -0.073 | [2] 0.094 | [3] -0.022 | [4] 0.011 | [5] 0.088

MECP2 isoform 2 (UniProt P51608)
inactive: [1] 0 | [2] 0.011 | [3] -0.055 | [4] 0.015 | [5] -0.094

MECR (UniProt Q9BV79)
inactive: [1] -0.001 | [2] 0.013 | [3] 0.047 | [4] -0.048 | [5] 0.005

MED15 (UniProt Q96RN5)
inactive: [1] -0.002 | [2] 0.043 | [3] 0.044 | [4] 0.001 | [5] 0.032

MCM5 (UniProt P33992)
inactive: [1] 0.016 | [2] 0.009 | [3] 0.009 | [4] -0.011 | [5] -0.017

MAZ isoform 2 (UniProt P56270)
inactive: [1] 0.079 | [2] -0.002 | [3] -0.179 | [4] 0.137 | [5] -0.096

MED4 (UniProt Q9NPJ6)
inactive: [1] 0.026 | [2] -0.01 | [3] 0.006 | [4] -0.057 | [5] -0.029

MDN1 (UniProt Q9NU22)
inactive: [1] -0.025 | [2] 0.03 | [3] 0.05 | [4] -0.037 | [5] -0.056

MBOAT7 (UniProt Q96N66)
inactive: [1] -0.088 | [2] 0.006 | [3] 0.088 | [4] -0.018 | [5] -0.014

MED18 (UniProt Q9BUE0)
inactive: [1] 0.035 | [2] -0.037 | [3] 0.001 | [4] 0 | [5] 0.003

Quoted from the listing (two entries):
MBOAT7 (UniProt Q96N66)
inactive: [1] -0.088 | [2] 0.006 | [3] 0.088 | [4] -0.018 | [5] -0.014

MED18 (UniProt Q9BUE0)
inactive: [1] 0.035 | [2] -0.037 | [3] 0.001 | [4] 0 | [5] 0.003

Additional entries follow.

METTL2A (UniProt Q96IZ6)
inactive: [1] 0.003 | [2] -0.004 | [3] 0.046 | [4] 0 | [5] 0.106

MAVS (UniProt Q7Z434)
inactive: [1] -0.027 | [2] -0.014 | [3] -0.006 | [4] -0.016 | [5] -0.004

MAX (UniProt P61244)
inactive: [1] 0.108 | [2] -0.067 | [3] -0.011 | [4] -0.014 | [5] -0.018

METTL1 (UniProt Q9UBP6)
inactive: [1] 0.046 | [2] -0.007 | [3] 0.044 | [4] 0.025 | [5] 0.018

MDP1 (UniProt Q86V88)
inactive: [1] 0.09 | [2] 0.007 | [3] 0.039 | [4] -0.005 | [5] 0.03

MBNL1 isoform 5 (UniProt Q9NR56)
inactive: [1] -0.045 | [2] 0.003 | [3] -0.048 | [4] 0.032 | [5] -0.099

MEIS2 (UniProt O14770)
inactive: [1] 0.032 | [2] 0.02 | [3] 0.048 | [4] -0.038 | [5] 0.015

MFSD1 isoform 6 (UniProt Q9H3U5)
inactive: [1] -0.143 | [2] 0.265 | [3] -0.175 | [4] 0.03 | [5] -0.037

MED22 isoform 2 (UniProt Q15528)
inactive: [1] 0.08 | [2] -0.025 | [3] 0.014 | [4] 0.011 | [5] 0.014

MCM3 isoform 2 (UniProt P25205)
inactive: [1] -0.006 | [2] -0.003 | [3] -0.013 | [4] 0.028 | [5] 0.015
